Laboratory results published in patent US20190389961A1.
Results are given in words; binding and its absence hold for the method and conditions named. Some binding calls cover weakened binding; strength is not graded here.

Target: T1, human CD39 mutant 7 (human) (UniProt P49961)
T1 sequence: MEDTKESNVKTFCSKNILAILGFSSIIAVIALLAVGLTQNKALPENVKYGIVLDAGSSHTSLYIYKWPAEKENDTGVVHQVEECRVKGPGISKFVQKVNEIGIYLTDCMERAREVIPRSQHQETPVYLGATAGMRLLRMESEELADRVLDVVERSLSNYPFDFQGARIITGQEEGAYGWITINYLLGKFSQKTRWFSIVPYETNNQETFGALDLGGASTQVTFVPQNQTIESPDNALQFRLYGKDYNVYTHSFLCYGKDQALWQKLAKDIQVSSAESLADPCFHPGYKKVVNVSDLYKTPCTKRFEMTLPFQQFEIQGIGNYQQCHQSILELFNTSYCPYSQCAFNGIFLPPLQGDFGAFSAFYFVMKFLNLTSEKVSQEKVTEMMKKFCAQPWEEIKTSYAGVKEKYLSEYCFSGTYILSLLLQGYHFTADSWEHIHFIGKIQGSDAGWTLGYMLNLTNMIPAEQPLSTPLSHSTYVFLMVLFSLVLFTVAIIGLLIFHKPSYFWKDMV
Experiment: flow cytometry, Hek-293T cells expressing the mutant

B1: antibody I-399 (antibody, V domains shown)
VH: PVQLQQPGAEVVMPGASVKLSCKASGYTFTSFWMNWMRQRPGQGLEWIGEIDPSDFYTNSNQRFKGKATLTVDKSSSTAYMQLSSLTSEDSAVYFCARGDFGWYFDVWGTGTSVTVSS
VL: EIVLTQSPTTMTSSPGEKITFTCSASSSINSNYLHWYQQKPGFSPKLLIYRTSNLASGVPTRFSGSGSGTSYSLTIGTMEAEDVATYYCQQGSSLPRTFGGGTKLEIK
- binding: binds
